Some of the results follow.
Columns and labels:
Assay in all cases: log2 fold change, soluble protein after heating vs DMSO (PISA); higher = thermal stabilisation; K562 cells, 10 uM, 30 min; active = over 0.2 and 3.5 SD of the protein, either way, in both replicates (recomputed)
[1] = compound: CN1CCN(CCOc2cc(OC3CCOCC3)c3c(Nc4c(Cl)ccc5c4OCO5)ncnc3c2)CC1 [saracatinib]
Outline: (§1)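 Soluble protein was quantified by TMTpro 16plex LC-MS/MS after channel sums were equalised. It was obtained as the supernatant after 21,000xg for 90 min from pooled aliquots of K562 cells (2×10^6 cells/mL, 10 μM compound, 30 min) heated for 3 min across 48°C-58°C and extracted in PBS with 0.5% NP-40 at 4°C. Thermal stability values are relative to control samples and come from duplicates. They are given as log2 fold changes.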

Protein sequences, listed by entry. Tags and fused reporters are not part of them. Lines headed by an entry give the natural chain unless they say otherwise; changes in a name come on top.
UniProt Q16659, whole entry, looked up: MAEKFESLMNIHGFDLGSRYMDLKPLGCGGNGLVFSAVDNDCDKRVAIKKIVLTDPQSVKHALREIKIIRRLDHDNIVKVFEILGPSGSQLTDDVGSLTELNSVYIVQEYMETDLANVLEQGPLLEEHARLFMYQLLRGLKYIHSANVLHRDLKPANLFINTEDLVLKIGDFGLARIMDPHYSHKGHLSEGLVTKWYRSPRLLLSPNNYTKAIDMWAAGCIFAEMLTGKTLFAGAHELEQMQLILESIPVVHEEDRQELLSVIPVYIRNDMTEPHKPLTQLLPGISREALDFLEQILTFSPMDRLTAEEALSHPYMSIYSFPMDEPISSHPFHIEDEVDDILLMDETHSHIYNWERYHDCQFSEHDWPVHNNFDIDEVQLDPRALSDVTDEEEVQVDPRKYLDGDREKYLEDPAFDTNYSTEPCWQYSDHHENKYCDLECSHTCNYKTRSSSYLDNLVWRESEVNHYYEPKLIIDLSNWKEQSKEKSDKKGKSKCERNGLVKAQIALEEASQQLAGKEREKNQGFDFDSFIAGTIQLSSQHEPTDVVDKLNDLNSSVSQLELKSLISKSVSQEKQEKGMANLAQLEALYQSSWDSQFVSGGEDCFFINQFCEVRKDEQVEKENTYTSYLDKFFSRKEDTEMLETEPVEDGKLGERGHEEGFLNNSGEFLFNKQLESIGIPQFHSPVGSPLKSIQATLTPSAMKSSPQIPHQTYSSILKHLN
UniProt Q9NQ29: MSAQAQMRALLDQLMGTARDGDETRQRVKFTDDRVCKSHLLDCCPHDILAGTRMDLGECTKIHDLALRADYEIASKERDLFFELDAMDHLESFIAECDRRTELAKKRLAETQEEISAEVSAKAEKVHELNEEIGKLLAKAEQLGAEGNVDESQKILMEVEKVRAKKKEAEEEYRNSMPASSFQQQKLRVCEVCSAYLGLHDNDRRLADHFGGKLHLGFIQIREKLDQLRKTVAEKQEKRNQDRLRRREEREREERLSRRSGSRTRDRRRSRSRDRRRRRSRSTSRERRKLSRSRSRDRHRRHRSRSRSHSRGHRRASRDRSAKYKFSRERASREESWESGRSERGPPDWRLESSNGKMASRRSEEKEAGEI
UniProt Q9UI95, whole entry, looked up: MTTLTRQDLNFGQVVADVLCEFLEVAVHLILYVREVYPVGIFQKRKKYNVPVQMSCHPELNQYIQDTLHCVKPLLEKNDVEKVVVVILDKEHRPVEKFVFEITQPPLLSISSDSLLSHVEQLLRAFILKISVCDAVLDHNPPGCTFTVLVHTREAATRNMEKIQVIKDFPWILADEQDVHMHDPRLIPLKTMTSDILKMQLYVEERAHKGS
UniProt Q9H0U3: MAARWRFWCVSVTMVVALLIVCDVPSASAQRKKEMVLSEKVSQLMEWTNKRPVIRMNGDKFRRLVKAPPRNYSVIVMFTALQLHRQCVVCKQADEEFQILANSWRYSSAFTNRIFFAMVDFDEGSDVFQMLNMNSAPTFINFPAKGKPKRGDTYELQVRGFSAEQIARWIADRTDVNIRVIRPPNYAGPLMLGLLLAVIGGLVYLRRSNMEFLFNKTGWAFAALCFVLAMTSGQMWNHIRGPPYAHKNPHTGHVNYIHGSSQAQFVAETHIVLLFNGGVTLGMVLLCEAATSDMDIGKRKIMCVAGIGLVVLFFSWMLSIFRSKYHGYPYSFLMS
UniProt Q86X29: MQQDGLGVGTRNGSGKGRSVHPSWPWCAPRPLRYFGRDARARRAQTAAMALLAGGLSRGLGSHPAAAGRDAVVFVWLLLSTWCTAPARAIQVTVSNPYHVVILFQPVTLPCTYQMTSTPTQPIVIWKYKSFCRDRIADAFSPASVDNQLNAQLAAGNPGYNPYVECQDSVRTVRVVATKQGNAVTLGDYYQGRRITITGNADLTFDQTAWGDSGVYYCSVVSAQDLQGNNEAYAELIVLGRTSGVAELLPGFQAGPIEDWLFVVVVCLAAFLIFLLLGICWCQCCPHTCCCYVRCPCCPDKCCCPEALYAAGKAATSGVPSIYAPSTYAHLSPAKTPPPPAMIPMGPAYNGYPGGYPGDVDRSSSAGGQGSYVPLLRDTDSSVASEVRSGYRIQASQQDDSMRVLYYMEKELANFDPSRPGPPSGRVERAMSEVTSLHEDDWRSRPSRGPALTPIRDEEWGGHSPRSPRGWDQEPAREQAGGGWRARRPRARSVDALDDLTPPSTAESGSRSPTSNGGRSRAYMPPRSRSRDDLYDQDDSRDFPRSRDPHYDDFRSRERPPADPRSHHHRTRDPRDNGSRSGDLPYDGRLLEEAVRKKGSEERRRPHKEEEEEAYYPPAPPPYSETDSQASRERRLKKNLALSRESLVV
UniProt Q6NSJ5: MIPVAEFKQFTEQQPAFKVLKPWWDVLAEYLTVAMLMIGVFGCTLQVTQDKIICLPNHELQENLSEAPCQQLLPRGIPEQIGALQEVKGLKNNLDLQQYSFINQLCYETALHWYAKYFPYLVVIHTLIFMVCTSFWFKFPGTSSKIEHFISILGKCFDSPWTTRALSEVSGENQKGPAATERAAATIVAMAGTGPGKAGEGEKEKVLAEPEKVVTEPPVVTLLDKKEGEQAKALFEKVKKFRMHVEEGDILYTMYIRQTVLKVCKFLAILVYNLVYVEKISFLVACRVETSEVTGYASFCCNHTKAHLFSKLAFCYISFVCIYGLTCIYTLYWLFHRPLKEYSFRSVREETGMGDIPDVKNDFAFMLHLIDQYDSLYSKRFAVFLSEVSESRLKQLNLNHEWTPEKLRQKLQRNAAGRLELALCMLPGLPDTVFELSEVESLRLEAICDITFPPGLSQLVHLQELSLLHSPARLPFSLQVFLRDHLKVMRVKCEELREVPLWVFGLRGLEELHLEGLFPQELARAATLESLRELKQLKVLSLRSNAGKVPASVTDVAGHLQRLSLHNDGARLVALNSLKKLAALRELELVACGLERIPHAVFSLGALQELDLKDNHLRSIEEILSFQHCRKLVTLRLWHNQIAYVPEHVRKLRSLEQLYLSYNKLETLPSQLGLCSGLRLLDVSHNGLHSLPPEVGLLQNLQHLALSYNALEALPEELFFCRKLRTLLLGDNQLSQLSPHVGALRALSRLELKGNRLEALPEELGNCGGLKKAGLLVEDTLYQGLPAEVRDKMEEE
UniProt Q96QZ7: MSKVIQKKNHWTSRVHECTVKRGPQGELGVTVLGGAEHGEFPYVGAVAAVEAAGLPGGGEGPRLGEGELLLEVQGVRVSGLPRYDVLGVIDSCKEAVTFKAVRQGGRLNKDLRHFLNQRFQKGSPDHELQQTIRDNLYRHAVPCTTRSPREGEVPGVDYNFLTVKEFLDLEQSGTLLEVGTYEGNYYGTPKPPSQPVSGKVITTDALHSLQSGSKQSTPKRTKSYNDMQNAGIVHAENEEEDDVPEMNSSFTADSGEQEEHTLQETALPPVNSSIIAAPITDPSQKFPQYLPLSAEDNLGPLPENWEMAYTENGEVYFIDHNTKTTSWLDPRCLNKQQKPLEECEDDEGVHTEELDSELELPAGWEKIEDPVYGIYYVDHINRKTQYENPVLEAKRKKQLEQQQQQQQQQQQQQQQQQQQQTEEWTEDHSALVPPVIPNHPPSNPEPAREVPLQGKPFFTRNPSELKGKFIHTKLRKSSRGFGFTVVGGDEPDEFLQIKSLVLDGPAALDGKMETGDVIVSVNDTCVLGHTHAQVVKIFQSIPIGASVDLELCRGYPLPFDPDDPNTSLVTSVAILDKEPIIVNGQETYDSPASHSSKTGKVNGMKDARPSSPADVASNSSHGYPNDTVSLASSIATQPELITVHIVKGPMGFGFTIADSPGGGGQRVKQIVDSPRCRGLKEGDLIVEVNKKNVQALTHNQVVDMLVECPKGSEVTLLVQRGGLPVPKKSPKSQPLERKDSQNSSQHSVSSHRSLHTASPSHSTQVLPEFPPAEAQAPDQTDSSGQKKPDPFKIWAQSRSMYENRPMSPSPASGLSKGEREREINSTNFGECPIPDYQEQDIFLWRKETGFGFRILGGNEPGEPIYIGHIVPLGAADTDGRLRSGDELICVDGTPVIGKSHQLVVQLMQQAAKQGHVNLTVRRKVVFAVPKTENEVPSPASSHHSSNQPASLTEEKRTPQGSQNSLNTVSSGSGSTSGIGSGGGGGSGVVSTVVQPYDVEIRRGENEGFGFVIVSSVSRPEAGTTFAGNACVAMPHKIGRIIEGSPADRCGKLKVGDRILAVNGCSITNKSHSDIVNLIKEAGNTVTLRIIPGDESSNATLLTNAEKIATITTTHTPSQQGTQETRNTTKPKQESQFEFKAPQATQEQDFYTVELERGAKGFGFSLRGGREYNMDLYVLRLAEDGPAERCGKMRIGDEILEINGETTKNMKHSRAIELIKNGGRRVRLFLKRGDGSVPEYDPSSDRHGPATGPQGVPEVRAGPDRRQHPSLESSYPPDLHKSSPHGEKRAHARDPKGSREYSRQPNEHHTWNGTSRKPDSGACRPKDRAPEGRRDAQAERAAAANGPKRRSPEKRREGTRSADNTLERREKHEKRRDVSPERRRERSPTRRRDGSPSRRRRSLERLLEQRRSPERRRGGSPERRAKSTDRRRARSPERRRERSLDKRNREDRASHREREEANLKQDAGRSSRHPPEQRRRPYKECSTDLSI
UniProt Q96GA3: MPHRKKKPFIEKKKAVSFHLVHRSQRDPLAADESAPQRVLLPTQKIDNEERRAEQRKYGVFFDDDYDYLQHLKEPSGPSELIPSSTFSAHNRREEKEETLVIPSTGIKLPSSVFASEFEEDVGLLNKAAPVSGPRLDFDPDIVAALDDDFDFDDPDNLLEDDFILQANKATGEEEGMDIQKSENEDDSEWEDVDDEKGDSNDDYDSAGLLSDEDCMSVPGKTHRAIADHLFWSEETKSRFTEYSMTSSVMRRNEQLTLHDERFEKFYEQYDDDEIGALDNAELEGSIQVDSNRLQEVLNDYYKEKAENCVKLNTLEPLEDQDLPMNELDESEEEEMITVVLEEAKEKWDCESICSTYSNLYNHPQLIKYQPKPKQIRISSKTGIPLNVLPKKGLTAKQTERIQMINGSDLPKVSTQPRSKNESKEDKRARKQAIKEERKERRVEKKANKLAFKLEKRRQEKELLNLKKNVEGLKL
UniProt Q9ULX9: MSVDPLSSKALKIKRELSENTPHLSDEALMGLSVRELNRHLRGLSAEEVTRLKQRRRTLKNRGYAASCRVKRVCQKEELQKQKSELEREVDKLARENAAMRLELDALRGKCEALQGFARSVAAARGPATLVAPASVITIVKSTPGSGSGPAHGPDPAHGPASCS
UniProt P07948: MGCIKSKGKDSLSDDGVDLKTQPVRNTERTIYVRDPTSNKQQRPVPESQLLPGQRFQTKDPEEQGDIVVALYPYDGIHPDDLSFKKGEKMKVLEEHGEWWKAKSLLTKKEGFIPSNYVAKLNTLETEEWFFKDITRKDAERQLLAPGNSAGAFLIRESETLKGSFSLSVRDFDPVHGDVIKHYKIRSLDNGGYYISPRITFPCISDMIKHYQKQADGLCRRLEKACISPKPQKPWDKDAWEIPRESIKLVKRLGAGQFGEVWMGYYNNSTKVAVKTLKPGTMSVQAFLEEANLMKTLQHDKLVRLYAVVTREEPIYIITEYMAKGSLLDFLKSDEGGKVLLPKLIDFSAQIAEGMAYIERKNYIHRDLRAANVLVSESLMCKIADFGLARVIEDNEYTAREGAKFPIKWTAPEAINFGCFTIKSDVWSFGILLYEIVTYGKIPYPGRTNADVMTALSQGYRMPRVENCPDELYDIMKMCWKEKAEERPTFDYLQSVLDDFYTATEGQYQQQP
UniProt Q6P9F7: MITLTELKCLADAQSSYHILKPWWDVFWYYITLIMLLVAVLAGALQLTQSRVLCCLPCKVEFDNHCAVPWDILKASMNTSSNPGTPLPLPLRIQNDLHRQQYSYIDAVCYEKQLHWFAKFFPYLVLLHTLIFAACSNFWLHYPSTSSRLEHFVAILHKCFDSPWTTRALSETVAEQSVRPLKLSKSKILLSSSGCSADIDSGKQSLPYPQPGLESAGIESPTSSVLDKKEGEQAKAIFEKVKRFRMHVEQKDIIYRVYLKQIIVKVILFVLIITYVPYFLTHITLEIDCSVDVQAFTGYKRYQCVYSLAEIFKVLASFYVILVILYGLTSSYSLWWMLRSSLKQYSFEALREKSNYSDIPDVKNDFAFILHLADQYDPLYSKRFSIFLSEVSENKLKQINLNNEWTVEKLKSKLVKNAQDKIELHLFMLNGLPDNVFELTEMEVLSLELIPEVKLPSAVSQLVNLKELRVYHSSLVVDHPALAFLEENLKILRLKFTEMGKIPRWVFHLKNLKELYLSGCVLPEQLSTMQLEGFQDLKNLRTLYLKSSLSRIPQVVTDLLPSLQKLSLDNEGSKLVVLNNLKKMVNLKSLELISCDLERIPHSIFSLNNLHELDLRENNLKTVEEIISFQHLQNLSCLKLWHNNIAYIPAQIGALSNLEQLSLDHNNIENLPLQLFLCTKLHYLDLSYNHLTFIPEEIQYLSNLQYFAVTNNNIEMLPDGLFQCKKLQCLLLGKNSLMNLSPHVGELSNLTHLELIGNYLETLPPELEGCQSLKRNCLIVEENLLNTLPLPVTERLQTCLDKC

[2] = compound: CN1CCN(c2nc(C3=C(c4c[nH]c5ccccc45)C(=O)NC3=O)c3ccccc3n2)CC1 [sotrastaurin]
Outline: as §1

[3] = compound: CN1CC[C@H](c2c(O)cc(O)c3c(=O)cc(-c4ccccc4Cl)oc23)[C@H](O)C1 [alvocidib]
Outline: as §1

[4] = compound: CN1CCc2c(c3ccccc3n2Cc2ccc(C(=O)NO)cc2)C1 [Tubastatin A]
Outline: as §1

[5] = compound: CNC(=O)C1=CC=CC=C1NC2=NC(=NC=C2Cl)NC3=C(C=C(C=C3)N4CCOCC4)OC
Outline: as §1

[6] = compound: CNC(=O)c1ccc(Nc2ncc(C(F)(F)F)c(NCc3nccnc3N(C)S(C)(=O)=O)n2)cc1 [defactinib]
Outline: as §1

[7] = compound: CNCc1ccc(-c2[nH]c3cc(F)cc4c3c2CCNC4=O)cc1 [rucaparib]
Outline: as §1

[8] = compound: CNc1nc(-c2ccc3c(N)n[nH]c3c2)cc(N2C[C@@H](C(=O)NC3CCCCC3)CC[C@H]2C)n1
Outline: as §1

[9] = compound: COC(=O)N[C@@H](C)CNc1nccc(-c2cn(C(C)C)nc2-c2cc(Cl)cc(NS(C)(=O)=O)c2F)n1 [encorafenib]
Outline: as §1

[10] = compound: COC(=O)[C@H](CCSC)NC(=O)C1=C(C=C(C=C1)NC[C@H](CS)N)C2=CC=CC=C2
Outline: as §1

Measured: log2 fold change

MAPK6 (UniProt Q16659)
inactive: [1] -0.01 | [2] 0.09 | [3] 0.05 | [4] 0.038 | [5] 0.03 | [6] 0.066 | [7] -0.01 | [8] 0.109 | [9] -0.019 | [10] -0.071

LUC7L (UniProt Q9NQ29)
inactive: [1] -0.005 | [2] 0.056 | [4] 0.006 | [5] -0.119 | [6] 0.022 | [7] 0.076 | [8] -0.049 | [9] 0.039 | [10] 0.022

MAD2L2 (UniProt Q9UI95)
inactive: [1] 0.063 | [2] 0.014 | [3] -0.078 | [5] -0.065 | [7] -0.2 | [8] 0.054 | [9] -0.002

MAGT1 (UniProt Q9H0U3)
inactive: [1] -0.007 | [2] -0.009 | [3] 0.029 | [4] -0.001 | [5] 0.051 | [6] 0.068 | [7] 0.007 | [8] -0.022 | [9] 0.019 | [10] -0.002

LSR (UniProt Q86X29)
inactive: [1] -0.003 | [2] 0.023 | [4] 0.012 | [5] -0.074 | [6] -0.053 | [7] -0.023 | [8] 0.095 | [9] 0.042 | [10] 0.031

LRRC8E (UniProt Q6NSJ5)
inactive: [1] -0.117 | [2] 0.328 | [3] 0 | [4] -0.023 | [5] 0.075 | [6] 0.066 | [8] -0.128 | [10] 0.019

MAPKAPK5 (UniProt Q8IW41)
inactive: [1] 0.008 | [2] -0.028 | [4] 0.036 | [5] -0.02 | [6] -0.032 | [7] 0.095 | [8] -0.039 | [9] -0.016 | [10] 0

MAGI1 (UniProt Q96QZ7)
inactive: [1] -0.013 | [2] -0.064 | [4] -0.017 | [5] 0.021 | [6] -0.007 | [7] 0.012 | [8] 0.024 | [9] 0.059 | [10] -0.009

LTV1 (UniProt Q96GA3)
inactive: [1] -0.09 | [2] -0.037 | [4] 0.16 | [5] 0.083 | [6] 0.145 | [7] 0.074 | [8] 0.081 | [9] 0.109 | [10] -0.061

LSG1 (UniProt Q9H089)
inactive: [1] -0.113 | [3] 0.235 | [4] 0.017 | [5] 0.082 | [6] -0.016 | [7] 0.229 | [8] 0.115 | [9] 0.195 | [10] -0.01

MAFF (UniProt Q9ULX9)
inactive: [1] 0.069 | [2] 0 | [6] 0.099 | [7] 0.027 | [8] -0.051 | [9] 0.019 | [10] 0.124

Reprinted from the results shown (2 entries):
MAGI1 (UniProt Q96QZ7)
inactive: [1] -0.013 | [2] -0.064 | [4] -0.017 | [5] 0.021 | [6] -0.007 | [7] 0.012 | [8] 0.024 | [9] 0.059 | [10] -0.009

LTV1 (UniProt Q96GA3)
inactive: [1] -0.09 | [2] -0.037 | [4] 0.16 | [5] 0.083 | [6] 0.145 | [7] 0.074 | [8] 0.081 | [9] 0.109 | [10] -0.061

(continued)

MAGEB10 (UniProt Q96LZ2)
inactive: [1] -0.062 | [3] 0.151 | [4] -0.035 | [6] 0.217 | [7] -0.066 | [8] 0.118 | [9] 0.004 | [10] 0.08

LYN (UniProt P07948)
inactive: [1] -0.198 | [2] -0.08 | [4] 0.026 | [5] -0.287 | [6] -0.174 | [7] 0.13 | [8] -0.022 | [9] 0.009 | [10] 0.038

LSR isoform 3 (UniProt Q86X29)
inactive: [1] -0.207 | [2] 0.176 | [4] 0.084 | [8] 0.114

LRRC8B (UniProt Q6P9F7)
inactive: [1] 0.154 | [2] -0.174 | [5] -0.016 | [8] -0.036

MAP1LC3B2 (UniProt A6NCE7)
inactive: [1] 0.016 | [2] -0.115 | [4] 0.037 | [5] 0.026 | [6] -0.015 | [7] 0.004 | [8] -0.015 | [9] 0.032 | [10] -0.048
